Assay results published in paper PMC4918325, “Mto2 multisite phosphorylation inactivates non-spindle microtubule nucleation complexes during mitosis” (Nature Communications, 2015).
These are yes or no findings as the source states them, for the method shown. In cells and extracts the contact can be indirect. Some entries that bind do so weakly or less than the wild type. Tags and fused reporters may be left off the sequences shown.

What was measured:
[1] = target: T1, Mto1-SZZ (protein A-tagged Mto1) (Schizosaccharomyces pombe, UniProt O94488 1-1115); test: pull-down; IgG-coupled Dynabeads pull Mto1-SZZ from extracts of metaphase-arrested mto2-phosphomutant cells (mto2[6A], mto2[13A], mto2[17A], mto2[24A]; nda3-KM311); western blot
T1 construct: Mto1, Schizosaccharomyces pombe; Bait of all IgG-bead pulldowns; also called SZZ-tagged Mto1; source: S. pombe, gene tagged by PCR-based methods, in cell extract
T1 sequence (looked up): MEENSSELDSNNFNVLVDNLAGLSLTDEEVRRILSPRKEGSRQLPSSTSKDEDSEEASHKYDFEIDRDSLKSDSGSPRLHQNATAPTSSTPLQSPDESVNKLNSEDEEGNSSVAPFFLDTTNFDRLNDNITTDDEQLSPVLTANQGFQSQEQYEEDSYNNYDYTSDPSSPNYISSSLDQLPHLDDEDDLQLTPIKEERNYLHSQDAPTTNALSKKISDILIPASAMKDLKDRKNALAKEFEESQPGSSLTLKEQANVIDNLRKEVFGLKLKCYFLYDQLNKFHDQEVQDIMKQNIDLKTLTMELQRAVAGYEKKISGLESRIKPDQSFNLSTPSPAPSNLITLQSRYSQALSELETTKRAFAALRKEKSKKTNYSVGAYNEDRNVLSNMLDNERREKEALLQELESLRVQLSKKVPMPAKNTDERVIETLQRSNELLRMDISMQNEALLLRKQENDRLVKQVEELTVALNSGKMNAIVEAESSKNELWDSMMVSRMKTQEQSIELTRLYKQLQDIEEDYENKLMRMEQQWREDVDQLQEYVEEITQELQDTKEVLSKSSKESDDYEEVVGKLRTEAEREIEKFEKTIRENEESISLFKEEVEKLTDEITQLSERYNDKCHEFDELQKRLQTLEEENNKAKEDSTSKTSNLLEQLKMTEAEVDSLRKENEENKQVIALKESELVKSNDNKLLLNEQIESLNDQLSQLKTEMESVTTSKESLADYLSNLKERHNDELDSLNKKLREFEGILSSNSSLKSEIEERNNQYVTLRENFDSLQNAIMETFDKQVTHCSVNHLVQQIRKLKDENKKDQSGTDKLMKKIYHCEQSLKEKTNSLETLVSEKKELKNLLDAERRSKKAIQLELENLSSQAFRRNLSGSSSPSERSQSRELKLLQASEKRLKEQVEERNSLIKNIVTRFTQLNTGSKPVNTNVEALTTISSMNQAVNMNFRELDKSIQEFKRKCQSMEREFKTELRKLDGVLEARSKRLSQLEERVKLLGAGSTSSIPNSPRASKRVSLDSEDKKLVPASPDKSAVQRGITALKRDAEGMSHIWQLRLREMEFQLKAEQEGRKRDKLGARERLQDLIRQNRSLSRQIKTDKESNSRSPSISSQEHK

[2] = target: T1, Mto1-SZZ (protein A-tagged Mto1); test: condition: only in interphase mto2[24D] and mto2[24E] cells; pull-down; IgG-bead pulldown of Mto1-SZZ from extracts of interphase mto2[24D] and mto2[24E] phosphomimetic cells (Supplementary Fig. 8a); western blot
[3] = target: T1, Mto1-SZZ (protein A-tagged Mto1); test: pull-down; IgG-coupled Dynabeads pull Mto1-SZZ from extracts of interphase (asynchronous) S. pombe cells (mto2+, mto2[6A], mto2[13A], mto2[17A], mto2[24A]); 90 min at 4 °C; lysis buffer 25 mM sodium phosphate pH 7.5, 100 mM KCl, 0.5 mM EDTA, 0.2% Triton X-100 with protease and phosphatase …; western blot

B1: Gtb1 (S. pombe γ-tubulin) (natural protein, UniProt P25295 1-446, looked up)
chain: MGREIITLQAGQCGNQIGSQFWQQLCLEHGIGPDGTLESFATEGVDRKDVFFYQSDDTRYIPRAILIDLEPRVVNNILSDTYGSLYNPENILITKNGGGAGNNWANGYSHAERIFEDIMDMIDREADGSDSLEGFSLLHSIAGGTGSGLGSFLLERLNDRYPKKIIQTYSVFPNSQSVSDVVVQPYNSLLALKRLTLNADSVVVLDNAALAHIAADRLHTQNPTFHQQNQLVSTVMSASTTTLRYPGYMNNDLVSIIASLIPSPRCHFLLTSYTPFTNQQVEEAKAIRKTTVLDVMRRLLLPKNQMVSVNPSKKSCFISILDIIQGEADPADVHKSLLRIRERRYASFIPWGPASIQVALSKKSPYIKTNHRVSGLMLANHTSIASLFKRTLDQYDRLRKRNAFLEQYKKEAIFEDDLNEFDSSRDVVADLINEYEACEDPNYLSL
notes: γ-tubulin Gtb1, Schizosaccharomyces pombe; Detected by anti-γ-tubulin blot (GTU-88); also called read-out of the γ-tubulin complex (γ-TuC); source: endogenous, S. pombe cell extract
- binding [1]: binds
- binding [2]: no binding
- binding [3]: binds
